Laboratory results reported in paper PMC7090148 (2020).
Substitutions are numbered along the chain they refer to. Results are given in words; binding and its absence hold for the method and conditions named. Binding seen in cells or lysates may run through a third protein. Some entries that bind do so weakly or less than the wild type. Tags and fused reporters may be left off the sequences shown.

Legend:
[1] = molecular target: T1, Mouse OFD1, wild type (mouse) (UniProt Q80Z25); assay: co-IP; OFD1 mutants co-expressed with TRAPPC8 or TRAPPC12; IP efficiency as ratio of immunoprecipitated TRAPPC8/OFD1 or TRAPPC12/OFD1; cell line and IP antibody not stated for this panel
T1 sequence: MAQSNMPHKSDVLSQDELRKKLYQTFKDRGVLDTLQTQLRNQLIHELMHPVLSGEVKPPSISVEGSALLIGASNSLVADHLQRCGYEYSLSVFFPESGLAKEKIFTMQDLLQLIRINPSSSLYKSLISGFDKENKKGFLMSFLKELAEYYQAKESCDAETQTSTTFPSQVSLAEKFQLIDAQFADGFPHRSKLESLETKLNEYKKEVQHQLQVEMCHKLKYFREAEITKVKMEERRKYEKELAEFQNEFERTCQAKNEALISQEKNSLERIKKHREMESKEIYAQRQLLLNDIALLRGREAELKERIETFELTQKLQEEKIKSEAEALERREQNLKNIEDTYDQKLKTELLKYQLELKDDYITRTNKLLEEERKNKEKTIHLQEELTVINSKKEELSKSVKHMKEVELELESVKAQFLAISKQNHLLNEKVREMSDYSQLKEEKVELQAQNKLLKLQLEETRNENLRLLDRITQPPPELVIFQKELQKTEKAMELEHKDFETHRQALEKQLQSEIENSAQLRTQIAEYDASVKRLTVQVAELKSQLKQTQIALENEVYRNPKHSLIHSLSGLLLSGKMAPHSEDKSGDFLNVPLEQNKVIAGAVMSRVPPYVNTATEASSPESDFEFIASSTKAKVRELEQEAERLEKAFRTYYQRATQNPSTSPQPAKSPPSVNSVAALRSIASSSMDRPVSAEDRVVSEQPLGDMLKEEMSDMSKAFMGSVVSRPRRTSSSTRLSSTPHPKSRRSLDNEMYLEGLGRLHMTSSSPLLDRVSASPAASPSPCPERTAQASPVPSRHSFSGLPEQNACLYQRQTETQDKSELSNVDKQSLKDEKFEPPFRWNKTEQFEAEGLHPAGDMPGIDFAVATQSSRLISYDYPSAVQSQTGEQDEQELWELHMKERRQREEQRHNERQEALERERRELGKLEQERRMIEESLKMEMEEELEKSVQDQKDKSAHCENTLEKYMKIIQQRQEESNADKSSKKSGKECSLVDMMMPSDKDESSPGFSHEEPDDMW

Mouse OFD1 G139S (mouse) = molecular target: T2, Mouse OFD1 G139S (mouse) (UniProt Q80Z25); assay: as above
T2 sequence: T1 sequence with G137S

- binding [1]: binds
- binding (Mouse OFD1 G139S (mouse)): binds
B1: NTAP-tagged TRAPPC12 (protein, UniProt Q8K2L8 1-797)
chain: METAKDGEQSPSEASPSAQAGPENIPEPMSREEESQPLYHEETIDLGGDEFASEENEPTSEGSHNFGDKLNEHMMESVLISDSPNNSEGDVGDLGCLQDVGEPPRGATDHRLPSSTDKEVVDTLSNGSETDGDDTPRDISDMTPDSRASLKEDSTQEDVTSMPALENAATEEVGPKDSLAPREEQTSEVSSNQSSSKDEPLPVCTIFSQATATPSQPHLFLQDGFESQMVKSPSFSSTSETSAKTPPPMVQPSPSLSTFFGDTMSSNSLASDFFDSFTTSTFISVSNPNAGSPVPEKLSSLTAPVGEKSPDSTSPSYSTRMDRSESGVSRAPLDVPESPKPFSQIQAVFAGSDDPFATALSMSEMDRRNDAWLPSQATREVLMSVATQQYGTVFIDKENLTMPGLKFDNIQGDAVKDLMLRFLGEKAAAKRQVLNASSVEQSFVGLKQLISCRNWRAAVDLCGRLLTAHGQGYGKNGLPTSHTTDSLQLWFVRLALLVKLGLFQNAEMEFEPFGNLDQPDLYYEYYPHVYPGRRGSMVPFSMRILHAELQQYLGNPQESLDRLHRVKTVCSKILANLEQGLAEDGGLSSVTQESRQASVQLWRSRLGRVLYSMANCLLLMKDYVLAVDAYLTVIKYYPEQEPQLLSGIGRILLQIGDIKTAEKYFQDVEKVTQKLDGLQGKIMVLMNRAFLYLGQNNFAEAHKFFTEILRMDPTNAVANNNAAVCLLYLGKLKDSLRQLEAMVQQDPRHYLHESVLFNLTTMYELESSRSMQKKQSLLEAVASKEGDSFNTQCLKLA
